Source: the odorant receptor screen of Mainland et al. (2015)
Several values for one entry are separate records, joined by “and”; a condition that tells them apart may be missing. Equal entries are not always repeated. This is one part of the list. Each value is one well over the wells without odorant, computed here; the data are noisy.

Legend:
Assay in all cases: odorant receptor activation (CRE luciferase / Renilla) (fold of no-odor wells); higher = more activation
Conditions in all cases: 100 µM
OR4N2 clone 1270 = system: OR4N2 clone 1270
OR4N5 clone 1262 = system: OR4N5 clone 1262
OR4P4 R231C clone 1398 = system: OR4P4 R231C clone 1398
OR4P4 clone 1139 = system: OR4P4 clone 1139
OR4Q3 clone 1411 = system: OR4Q3 clone 1411
OR4X2 clone 1193 = system: OR4X2 clone 1193
OR4M2 clone 1278 = system: OR4M2 clone 1278
OR4N4 clone 1277 = system: OR4N4 clone 1277
OR4S1 clone 1283 = system: OR4S1 clone 1283
OR4S2 clone 1175 = system: OR4S2 clone 1175

Row | SMILES | odorant receptor activation (OR4N2 clone 1270) | odorant receptor activation (OR4N5 clone 1262) | odorant receptor activation (OR4P4 R231C clone 1398) | odorant receptor activation (OR4P4 clone 1139) | odorant receptor activation (OR4Q3 clone 1411) | odorant receptor activation (OR4X2 clone 1193) | odorant receptor activation (OR4M2 clone 1278) | odorant receptor activation (OR4N4 clone 1277) | odorant receptor activation (OR4S1 clone 1283) | odorant receptor activation (OR4S2 clone 1175)
1 | C=C(C)C1CC=CCC1 (stereo not drawn) [r-limonene] | 0.946 and 0.415 | 0.759 and 0.46 | 1.02 and 0.762 | 1.03 and 0.517 | 1.43 and 1.34 | 0.937 and 0.724 | – | – | – | –
2 | CC1CCC(C(C)C)C(O)C1 (single isomer, unassigned; (+)) [(+)-menthol] | 0.787 | 0.815 | 1.17 | 1.23 | 0.996 | 1.48 | 0.982 | 0.901 | 0.815 | 1.21
3 | CCCCCCOC(=O)CCC [hexyl butyrate] | 0.918 and 1.01 | 1.37 and 0.756 | 0.559 | 0.572 | 0.809 | 0.85 | 1.12 and 0.8 | 1.1 and 0.763 | 1.08 and 0.967 | 1.2
4 | CCCCCCCCCCC=O [undecanal] | 0.928 | 0.99 | 0.926 | 0.885 | 1.18 | 0.881 | 1.2 | 0.875 | 0.852 | 1.16
5 | CC(C)(C)c1ccc(CCC=O)cc1 [bourgeonal] | 0.903 | 0.784 | 0.162 | 0.831 | 0.209 | 0.778 | 0.767 | 0.778 | 0.757 | 0.73
6 | O=C1CCCCC1 [Cyclohexanone] | 0.518 | 0.696 | 0.793 | 0.896 | 1.01 | 1.08 | 0.175 | 0.338 | 0.394 | 1.15
7 | C=CCc1ccc(O)c(OC)c1 [eugenol] | 2.38 and 1.51 | 4.58 and 1.96 | 1.25 and 1.26 | 1.78 and 1.32 | 2.73 and 2.09 | 2.31 and 1.13 | 0.84 and 1.61 | 0.907 and 1.13 | 0.87 and 1.36 | 2.62 and 1.41
8 | CC(C)C(=O)O [isobutyric acid] | 0.942 and 1.02 | 1.03 and 0.825 | 0.623 | 0.683 | 0.736 | 0.958 | 1.15 and 0.653 | 0.939 and 0.706 | 0.94 and 0.693 | 0.903
9 | CC(=O)C(C)=O [diacetyl] | 1.18 | 1.35 | 1.36 | 1.08 | 1.37 | 1.03 | 1.28 | 0.848 | 1.23 | 1.14
10 | CCCCCC(=O)O [caproic acid] | 0.772 | 0.893 | 0.222 | 1.16 | 0.287 | 1.11 | 0.82 | 0.916 | 0.747 | 1.09
11 | CC12C=CCC1C1CCC3CC(=O)CCC3(C)C1CC2 (stereo not drawn) [androstenone] | 1.03 | 1.07 | 1.26 | 4.94 | 0.79 | 5.79 | 1.24 | 0.904 | 1.18 | 3.58
12 | CC(=O)OCC=C(C)CCC=C(C)C [geranyl acetate] | 1.56 and 0.931 | 1.08 and 0.842 | 0.86 | 0.634 | 1.19 | 0.974 | 1.24 and 1.14 | 0.899 and 1.01 | 1.09 and 1.68 | 1.16
13 | CCCCCCCOC(C)=O [heptyl acetate] | 1.04 and 0.987 | 1.02 and 0.966 | 0.672 | 0.714 | 0.924 | 0.694 | 0.937 and 1.11 | 1.12 and 0.99 | 0.796 and 1.37 | 0.68
14 | CC(C)CC(=O)O [isovaleric acid] | 0.633 | 0.82 | 0.606 | 1.21 | 0.778 | 1.61 | 0.735 | 0.886 | 0.625 | 1.03
15 | COc1cc(C)ccc1O [2-methoxy-4-methylphenol] | 0.589 | 0.748 | 1.15 | 0.849 | 1.02 | 1.33 | 0.972 | 0.835 | 1.03 | 1.3
16 | CCCCO [1-butanol] | 0.897 | 0.898 | 1.1 | 1.04 | 0.788 | 1.39 | 1.41 | 1.18 | 1.14 | 1.01
17 | O=C1CCCCCCCCCCCC(=O)OCCO1 [ethylene brassylate] | 1.82 | 1.78 | 1.64 | 1.5 | 1.98 | 1.72 | 1.45 | 1.67 | 1.43 | 1.65
18 | COc1cc(C=O)ccc1O [vanillin] | 1.06 | 1.09 | 0.773 | 1.18 | 0.897 | 1.05 | 1.37 | 1.27 | 0.779 | 1.09
19 | CC(C)C=O [isobutyraldehyde] | 0.919 and 1.31 | 1.17 and 0.752 | 0.713 | 0.743 | 0.876 | 0.868 | 0.792 and 0.766 | 1.13 and 0.717 | 1.17 and 0.922 | 0.832
20 | CC(C)=CCCC(C)=CC=O [citral] | 1.07 | 1.08 | 0.285 | 1.03 | 0.272 | 1.19 | 1.54 | 1.2 | 0.99 | 1.19
21 | CCCCCCC=O [heptaldehyde] | 0.599 and 1.1 and 1.12 | 1.2 and 1.03 and 0.813 | 0.894 and 0.664 | 0.357 and 0.68 | 1.22 and 0.816 | 0.461 and 0.892 | – | 0.295 and 0.882 and 0.609 | – | 0.329 and 0.912
22 | COC(=O)c1ccccc1 [methyl benzoate] | 0.722 | 0.7 | 0.634 | 0.949 | 1.04 | 0.878 | 0.242 | 0.51 | 0.464 | 0.87
23 | CC1COCc2cc3c(cc21)C(C)(C)C(C)C3(C)C (stereo not drawn) [galaxolide] | 3.62 and 1.27 | 1.3 and 0.875 | 2.81 | 0.477 | 2.52 | 0.678 | 4.71 and 4.2 | 1.56 and 4.09 | – | 3.28
24 | CCC1(O)C2(C)CCC(C2)C1(C)C (stereo not drawn) [2-ethylfenchol] | 1.17 | 0.656 | 1.17 | 0.698 | 0.581 | 1.01 | 1.17 | 1.09 | 0.955 | 0.849
25 | CC(=O)OC1CC2CCC1(C)C2(C)C (stereo not drawn) [isobornyl acetate] | 1.06 and 1.02 | 1.3 and 1.05 | 0.669 | 0.673 | 0.871 | 0.796 | 1.03 and 0.921 | 1.12 and 0.838 | 1.32 and 1.27 | 1.08
26 | CCCCCCCCOC(C)=O [octyl acetate] | 0.831 | 1.17 | 0.927 | 0.963 | 0.684 | 1.37 | 1.01 | 1.01 | 1.11 | 0.877
27 | CCCCCCCCCC=O [decyl aldehyde] | 1.12 | 2.06 | 1.22 | 1.08 | 1.51 | 1.15 | 1.46 | 1.19 | 1.27 | 1.03
28 | CCCCCOC(C)=O [n-amyl acetate] | 0.653 | 0.62 | 0.642 | 0.534 | 1.09 | 0.869 | 0.262 | 0.316 | 0.328 | 0.817

Three compounds already listed, sorted by formula weight, rising:
Row | SMILES | odorant receptor activation (OR4N2 clone 1270) | odorant receptor activation (OR4N5 clone 1262) | odorant receptor activation (OR4P4 R231C clone 1398) | odorant receptor activation (OR4P4 clone 1139) | odorant receptor activation (OR4Q3 clone 1411) | odorant receptor activation (OR4X2 clone 1193) | odorant receptor activation (OR4M2 clone 1278) | odorant receptor activation (OR4N4 clone 1277) | odorant receptor activation (OR4S1 clone 1283) | odorant receptor activation (OR4S2 clone 1175)
8 | CC(C)C(=O)O [isobutyric acid] | 0.942 and 1.02 | 1.03 and 0.825 | 0.623 | 0.683 | 0.736 | 0.958 | 1.15 and 0.653 | 0.939 and 0.706 | 0.94 and 0.693 | 0.903
6 | O=C1CCCCC1 [Cyclohexanone] | 0.518 | 0.696 | 0.793 | 0.896 | 1.01 | 1.08 | 0.175 | 0.338 | 0.394 | 1.15
21 | CCCCCCC=O [heptaldehyde] | 0.599 and 1.1 and 1.12 | 1.2 and 1.03 and 0.813 | 0.894 and 0.664 | 0.357 and 0.68 | 1.22 and 0.816 | 0.461 and 0.892 | – | 0.295 and 0.882 and 0.609 | – | 0.329 and 0.912
